# In the supplement of paper PMC10338343:
# ± gives the standard deviation. The entries are a selection whose mix differs from that of the whole data set. Many of these values have a large error.
# System: EfPiwi piRISC loaded with piRNA #1 (26 nt)
# Experiment: pre-steady-state target cleavage rate (min^-1); guide: piRNA #1 5'p-UGAGGUAGUAGGUUGUAUAGUAUCCA; MIWI and MILI are mouse PIWI proteins and EfPiwi is from a freshwater sponge; tags in brackets are library labels; higher = faster piRNA-guided slicing of the target
# Conditions: auxiliary factor: 500 nM Ephydatia muelleri Gtsf1
# Summary of the method: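 The pre-steady-state cleavage rate was derived from a burst-and-steady-state fit of Cleave-'n-Seq data. For these assays, 1 nM active affinity-purified piRISC loaded with a single synthetic guide was mixed with […] a transcribed, DNA-blocked target RNA library in HEPES–potassium acetate buffer at 33 °C, with or without 500 nM GTSF1 partner protein, for 0–8 or 0–960 min. Sequencing counts of uncleaved targets were normalised to depth and to weakly complementary targets, and k3 was capped at 0.0001 min^-1 after three trials were pooled.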
row,Sequence,pre-steady-state target cleavage rate
1,GGAGACCUAUGAUUACUACCUACUACCUGA,0.000263 ± 0.0077
2,GGAGACCUAUGAUAUGUUGCUCACUACCUCA,0.000719 ± 0.0065
3,GGAGACCUAUGAUAUGUUGGUACUACAUCA,0.000403 ± 0.01
4,GGAGACCUAUGAUAUCAAGCUUCUACCUCA,0.000178 ± 0.018
5,GGAGACCUAUGAUAUGUAGGUACUACCUCA,0.000354 ± 0.0053
6,GGAGACCUAUGAUAUCAACCUAAUACCUCA,0.000143 ± 0.016
7,GGAGACCUAUGAUAACAACCUACUAUCUCA,0.000887 ± 0.0074
8,GGAGACCUAUGAUUACAACCAACUUCCUCA,0.000345 ± 0.011
9,GGAGACCUAUGUAUUCAACCUAGUACCUCA,0.000349 ± 0.0067
10,GGAGACCUAUGAUAUGUUGGUACUACCACA,0.000439 ± 0.0073
11,GGAGACCUAUGAUAUGUUGUUACUACCUCA,0.00201 ± 0.0045
12,GGAGACCUAACUAUACAUGGUACUACCUCA,0.00289 ± 0.0051
13,GGAGACCUAUGAUAUCAACCUUCUACCACA,0.000132 ± 0.016
14,GGAGUGGAUACUAUACAACCUACAACGUCA,0.00302 ± 0.0017
15,GGAGACCUAUGAUAUCAACCAACUACCACA,0.000237 ± 0.026
16,GGAGACCUAUGAUUACAACGUACAACCUCA,0.00151 ± 0.0063
17,GGAGACCUAUGAUAUGUUGCUAACUACCUCA,0.000398 ± 0.0046
18,GGAGACCUAACUAUACAACCAAGUACCUCA,0.00088 ± 0.009
19,GGAGACCUAACUAUACAACCAACAACCUCA,0.000856 ± 0.01
20,GGAGACCUAUGAUAUCAACUACUACCUCA,0.000671 ± 0.0095

# Fetched one by one from the entries so far, 3 records:
row,Sequence,pre-steady-state target cleavage rate
6,GGAGACCUAUGAUAUCAACCUAAUACCUCA,0.000143 ± 0.016
15,GGAGACCUAUGAUAUCAACCAACUACCACA,0.000237 ± 0.026
11,GGAGACCUAUGAUAUGUUGUUACUACCUCA,0.00201 ± 0.0045

# Remaining list, next part.

row,Sequence,pre-steady-state target cleavage rate
1,GGAGACCUAUGAUAUGUUGGUACCUACCUCA,0.000482 ± 0.0067
2,GGAGACCUAUGAUAACAACGUACUUCCUCA,0.000698 ± 0.0088
3,GGAGACCUAUGAUUACAAUCUACUACCUCA,0.00159 ± 0.0049
4,GGAGACCUAUGAUUACAACCUUACUACCUCA,0.000681 ± 0.0081
5,GGAGACCUAUGAUAUUAACCUACUACCUCA,0.000323 ± 0.0096
6,GGAGACCUAUGAUAACAACCAACUACCUGA,0.000335 ± 0.01
7,GGAGACCUAUGAUUACAACCCUACUACCUCA,0.000809 ± 0.0083
8,GGAGACCUAUGAUAACAACCUACUACCACA,0.000477 ± 0.013
9,GGAGACCUAUGAUAUCAUCCAACUACCUCA,0.000253 ± 0.013
10,GGAGACCUAUCUAUACAACCUUGAUGGAGA [g10:g20:cont:t1A],0.00115 ± 0.0054
11,GGAGACCUAUGUAUACAACCUACUUCCUGA,0.000434 ± 0.0087
12,GGAGACCUAUGAAUACAACCUUCUAGCUCA,0.000712 ± 0.01
13,GGAGACCUAUGAUAACAACCAACUACCUCA,0.000266 ± 0.012
14,GGAGACCUAUGAUAUGUUGCUACUUACCUCA,0.000291 ± 0.01
15,GGAGAGGAUACUAUACAACCUUGAACCUCA,0.00408 ± 0.004
16,GGAGACCUAUGAUUACAACCAACUAGCUCA,0.000492 ± 0.0095
17,GGAGUGGAUACUAUACAACCUCACUACCUCA,0.00417 ± 0.0022
18,GGAGACCUAUGAAUACAUGCUACUACCUCA,0.00119 ± 0.0054
19,GGAGACCUAUGAUUCACAACCUACUACCUCA,0.00142 ± 0.0052
20,GGAGACCUAUGAUUAGUUCCUACUACCUCA,0.000425 ± 0.0062
